Source: ChEMBL document CHEMBL3988442, “University of Dundee, Small-Polar-MMV Screening Library” (2021).

Mtb cholesterol medium: 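Whole-cell growth test on Mycobacterium tuberculosis, read after 4 days in a medium based on cholesterol and the lipid DPPC; the read-out is not stated. Tested at 50 µM. Direction is inferred from retests: higher values go with more growth inhibition. About 69,000 compounds were tested under these conditions; 0.54% (about 370) showed 50% or more at least once.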
Mtb glucose medium: 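Growth of Mycobacterium tuberculosis over 3 days (7H9 medium with glucose and tyloxapol); the read-out is not stated. Compounds at 50 µM. Direction is inferred from retests: higher values go with more growth inhibition. Of about 69,000 compounds tested this way, about 760 (1.1%) reached 50% or more in at least one test.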

The filed quantity is “Percent Effect” (%).
The controls that fix the scale are not given in the record; negative values are as filed.
Compounds were drawn at random from those tested, without regard to their results.
Two or more numbers in one place are separate tests of the same structure; such repeats can differ widely.

Compound	Mtb cholesterol medium	Mtb glucose medium
CCC(C)C(=O)NCc1ccc(-n2cncn2)nc1 (centres unmarked)	9.924	0.9766
CNc1nc(CN2C[C@@H](NC(C)=O)[C@H](c3ccc(C)o3)C2)cs1	5.841	-21.16
Cc1cccc(=O)n1CCCNc1nc(N(C)C)nc2c1CCNC2	-49.1	-38.14
CCOc1ccc(CN2CCC(c3nc(C)cc(C)n3)C2)cc1CO (centres unmarked)	0.4085 & 3.872	6.015
COc1ccc2c(=O)n(CC3CCCCN3C)ccc2c1OC (centres unmarked)	-16.04	-22.57
Cc1ccc(-c2nnc(C3CCCN3S(=O)(=O)c3cnn(C)c3C)o2)s1 (centres unmarked)	13.29 & 9.773	17.3
COc1ccc(-c2cc(C3CCN(C(C)=O)CC3)ccn2)cc1	-0.5013	10.56
CS(=O)(=O)c1ccc(NC(=O)NCc2ccc3c(c2)CCC3)cn1	8.583	-8.042
CC(c1ccc(C(=O)NCCc2nc(N)cc(O)n2)o1)N1CCCCC1 (centres unmarked)	-8.367	9.264
COc1ccccc1N1CCN(Cc2cnc3c(c2)c(C)nn3C)CC1	9.435	-7.198
COc1ccc(CN2CCc3sccc3C2C)cc1CN1CCOCC1.Cl (centres unmarked)	6.752	2.204
Cc1ccsc1CN(Cc1ccccn1)CC(C)C	6.452	12.62 & 0.2145
Cc1ccc(OCCCC(=O)NC(C)c2ccc(S(N)(=O)=O)cc2)cc1 (centres unmarked)	-3.053 & 5.157	-13.4
O=C(NC[C@H]1CCCC[C@H]1O)c1ccc2nc(-c3ccco3)[nH]c2c1	11.4	28.94
Cn1c2c(c(=O)n1C)CN(C(=O)c1ccncc1F)CCC2	-6.075	-5.206
CC(C)c1nnc(CN2C(=O)OC[C@@H]2C(C)C)o1	0.6147	2.74 & -7.808
CC(C)c1cnc(CNc2c(F)cccc2-n2cccn2)o1	8.051	12.11 & 17.9
Cc1cc(C)nc(NC2CCOC3(CCCC3)C2)n1 (centres unmarked)	32.6	45.25
CC(C)c1nc(C2CCCN2C(=O)c2ccc(C#N)cn2)no1 (centres unmarked)	-12.32	-11.48
Cn1cc(C(C)(O)CNc2ccc(Cl)c(C#N)n2)cn1 (centres unmarked)	-14.62	-2.163
O=C(CS(=O)(=O)C1CCCC1)NC1CCCc2cc(OC(F)F)ccc21 (centres unmarked)	11.02	15.08
CCc1nsc(N2CCN(Cc3ccno3)CC2)n1	18.43	15.34
O=S(=O)(C1CC1)N1CCC2(COCc3cnc(N4CCOCC4)nc32)C1 (centres unmarked)	-28.63	-32.77
Cc1ccc(-c2cc(CNC(=O)N3CCSCC3)on2)cc1	5.701	-58.59 & 2.908
N#Cc1cccc(N2CCCC3(C2)CN(c2ncccn2)CCO3)n1.O=C(O)C(F)(F)F (centres unmarked)	11.85	-11.26 & 3.165
O=C(Nc1ccc2scnc2c1)N1CCN([C@H]2CCCC[C@@H]2O)CC1	14.38	-2.481
COCCN(C(=O)c1ccc(OC)cc1)c1ccc(C#N)cc1	-10.69	11.49 & -5.69
O=C(NCc1ccon1)Nc1cc(F)ccc1N1CCCCC1	11.42	0.5385
Brc1cnc(NCc2ccccc2N2CCOCC2)nc1	26.52	20.72
CCc1ccc(CNc2ccccc2CN2CCC(O)CC2)o1	-1.544	12.22
Cc1nc(C)n(CC2CCCN(CC(=O)Nc3ccncc3)C2)n1 (centres unmarked)	-16.18	7.221
Cc1cc2ccccc2n1CCC(=O)NCc1ncc[nH]1	-40.34	-17.14
Cc1nn(C)c(N2CCOCC2)c1CNC(C)c1cccs1 (centres unmarked)	-11.69	6.321
Cc1cc(C)n(CC2CCCN2CCC(=O)Nc2cc(C)on2)n1 (centres unmarked)	15.97	-8.807
Cc1cc(C2CCCN2c2ncc(C(N)=O)cc2Cl)no1 (centres unmarked)	-17.99	7.819 & -0.7039
CCC(C(=O)NCc1ccn(-c2ccc(F)cc2)n1)N1CCCC1=O (centres unmarked)	-4.946	29.06
O=c1c(Cc2ccc(Cl)cc2Cl)c(O)ccn1CC1CC1	0.9603	1.409 & -1.859
O=C(C[S+]([O-])c1ccc(F)c(F)c1)NCc1cc(F)cc(F)c1 (centres unmarked)	8.898	0.889
O=S(=O)(C/C=C/c1ccccc1)Cc1nc(C2CC2)no1	29.73 & 16.66	14.21 & 18.34
Cc1nccn1C1CCCN(C(=O)c2cccc(Cn3ccnc3)c2)C1 (centres unmarked)	-9.117	22.7
[H][C@@]12CN(C(C)=O)C[C@]1([H])C(=O)N(C)C21CCN(C(=O)C(C)C)CC1	15.8	-28.42
CCCn1ccnc1-c1nccn1CCC(N)=O	5.974	3.772
CO[C@H]1C[C@@H](O)C12CCN(C(=O)CCSCc1ccc(F)cc1)CC2	22.62	-6.936 & -2.725
COc1ccc(C(C)N2CCC(CNC(C)=O)CC2)cc1Cl (centres unmarked)	1.987	5.023
CC(=O)N1CCC2(CCN(CC(C)C)C2)C1 (centres unmarked)	7.407	-4.971
[H][C@@]12CCN(C(=O)CCCn3nc(C)cc3C)C[C@@]1(CO)CCCN2	-1.939	8.506
[H][C@@]12C[C@@H](c3nnc(C4CC4)o3)O[C@]1([H])CN(C(=O)c1ccsc1)C2	3.659	15.92
CCc1c(O)nc(SCC(=O)Nc2ccccc2)n(C(C)CC)c1=O (centres unmarked)	7.291	8.328
Cc1nn(C)c(C)c1C1CCCN1C(=O)c1cnc2onc(C)c2c1 (centres unmarked)	-1.72	21.58
[H][C@@]12CS(=O)(=O)C[C@]1([H])N(CCCc1ccccc1)CCN2C(=O)N(C)C	17.79	-12.24
CS(=O)(=O)N1CCC[C@H]1c1ncnn1-c1ccc2c(c1)OCO2	-12.02	-8.282
CC(C)NC(=O)N1CCN(CC2CC2)c2ncccc2C1.O=C(O)C(F)(F)F	-18.36 & -9.223	-4.919
Cc1c[nH]nc1C1CCN(S(=O)(=O)N(C)C)C1 (centres unmarked)	3.266	-2.438
O=C(NCC1CC1)C1CN(Cc2cccs2)Cc2ccnn2C1 (centres unmarked)	-9.978	9.726
CN1CCN(C(=O)CCCc2ccccn2)c2ccc(F)cc21	-12.51	-4.886 & 9.337
CC(C)=CCN1CCOC(Cn2cccn2)C1 (centres unmarked)	-20.8	-26.07
O=C(O)C(F)(F)F.O=C(O)C(F)(F)F.[H][C@@]12COC[C@]1(COCC1CC1)CN(Cc1cccnc1OC)C2	1.518	-6.71
Cc1ccc(C(C)NC(=O)Cc2c(C)nc3c(c2C)c(=O)[nH]n3C)o1 (centres unmarked)	-15.11	-21.93
Cc1cc(C)c(S(=O)(=O)Nc2c(C)nc(N(C)C)nc2C)cc1C	20.69	11.39 & 12.93
Cc1ccc2[nH]c(CO[C@H]3CN(c4ccc(C#N)cn4)C[C@H]3F)nc2c1	-7.922	-16.09 & 2.464
O=C(Nc1cc2c(cc1Br)OCCO2)NC1CCS(=O)(=O)C1 (centres unmarked)	-19.54	-6.619 & -47.34
Cc1nc(-c2ccsc2)ccc1C(=O)NCCC1CCCO1 (centres unmarked)	-9.294	-20.78
Cc1n[nH]c(C)c1CCC(=O)N1CCC(O)(CN2CCOCC2)C1 (centres unmarked)	1.745 & -18.99	7.416
Cn1cncc1-c1nnc([C@H]2CCN(CC(C)(C)C)C2)o1	-11.38	-6.137 & -20.69
CNC(=O)Cc1ccccc1NC(=O)NCc1ccc(SC)cc1	-16.83	-26.65
O=C(c1cccnc1)N(Cc1ccncc1)C1CC1	-3.721	-10.13
O=C(COC1CCCC1)NCCc1noc(-c2ccccn2)n1	20.24	27.01
O=C(Cc1cccc(O)c1)N1CCCC(OCc2cccnc2)C1 (centres unmarked)	10.69	5.449
COc1cc(N(C)Cc2noc(CC(C)C)n2)ncn1	7.568	4.535 & 10.07
O=C(CCN1CCN(c2ccc3nncn3n2)CC1)NC1CCCC1	3.566	-31.53
CC1(C)CC(N2Cc3nc(N)ncc3C2=O)CC(C)(C)N1	-0.6493	15.53
Cc1cc(C)nc(N2CCc3ccc(OC(F)F)cc3C2)n1	13.77	25.6
CS(=O)(=O)NC1CCN(CCOCc2ccccc2)CC1	-2.178	23.37
COc1ccc(CC(=O)NC2(C)CCS(=O)(=O)C2)cc1F (centres unmarked)	-13.6	-17.32
CNc1ncc(-c2ccc(NC(=O)[C@@H]3CCCCN3)cc2)cn1	-11.23	6.544
CC1CNC(=O)CCN1Cc1cc(O)c2cccc(F)c2n1 (centres unmarked)	-0.8761	18.32
CCc1nc2n(n1)CC(NCC1=Cc3ccc(OC)cc3OC1)CC2 (centres unmarked)	-9.67	1.054
COCCNC(=O)Cn1c(-c2cccc(Cl)c2)nc(C)c(CCO)c1=O	-8.824	2.437
CC(C)Cn1cncc1CNC1CCCNC1 (centres unmarked)	-24.95	-4.537 & -37.86
COc1nc(N2CCNCC2)ncc1Br	14.69	37.32 & 30.39
COc1ccc([C@@H]2CN(c3cc(OC)nc(N)n3)C[C@H]2N(C)C)cc1	-1.61	7.678
O=C(O)C(F)(F)F.O=C(O)C(F)(F)F.c1cnn(Cc2nnc3n2CCCN(Cc2ccsc2)C3)c1	-18.33	-13.12
Cc1nccn1C1CCCN(C(=O)c2ccc3c(c2)CCC3)C1 (centres unmarked)	-3.457	7.2

For reference, 9 entries once more:

Compound,Mtb cholesterol medium,Mtb glucose medium
CS(=O)(=O)N1CCC[C@H]1c1ncnn1-c1ccc2c(c1)OCO2,-12.02,-8.282
COc1ccc(CN2CCc3sccc3C2C)cc1CN1CCOCC1.Cl (centres unmarked),6.752,2.204
CS(=O)(=O)NC1CCN(CCOCc2ccccc2)CC1,-2.178,23.37
CO[C@H]1C[C@@H](O)C12CCN(C(=O)CCSCc1ccc(F)cc1)CC2,22.62,-6.936 & -2.725
Cc1cc(C)nc(NC2CCOC3(CCCC3)C2)n1 (centres unmarked),32.6,45.25
[H][C@@]12CCN(C(=O)CCCn3nc(C)cc3C)C[C@@]1(CO)CCCN2,-1.939,8.506
O=C(NCc1ccon1)Nc1cc(F)ccc1N1CCCCC1,11.42,0.5385
CNc1ncc(-c2ccc(NC(=O)[C@@H]3CCCCN3)cc2)cn1,-11.23,6.544
Cc1ccc2[nH]c(CO[C@H]3CN(c4ccc(C#N)cn4)C[C@H]3F)nc2c1,-7.922,-16.09 & 2.464